Results as given in patent publication US7351744B2, “Naphthalene derivatives as termite repellents and toxicants” (Board of Supervisors of Louisiana State University and …, priority 2003, dated 2008).

Test system: C. formosanus workers and soldiers
Experiment: Topical application toxicity assay
Type: in vivo, Coptotermes formosanus
Method: Dose-mortality data were analyzed using probit analysis as adapted for PC use (POLO-PC), which automatically corrected for control mortality using Abbott's transformation. See, e.g., R. M Russell et al., “POLO: a new computer program for probit analysis,” Bull. Entomol. Soc. Am., vol. 23, pp. 209-213 (1977); and LeOra Software, “POLO-PC, a user's guide to probit analysis or logit analysis” (1987). The LD50s of workers and soldiers from four tested colonies (y) were plotted against the average weight of tested termites (x) to establish a linear regression equation and conduct correlation analyses. Mean survival, food consumption and tunnel areas were compared among treatments using analysis of variance (ANOVA), followed by least significant difference procedures. See, SAS Institute, SAS/STAT User's Guide: version 8, SAS Institute, Inc., Cary, N.C. (1999). In two-choice assays using either treated filter paper or treated sand, the parameters measured in the two lateral sides of each treatment were compared using paired t-tests. All data were judged at α=0.05.
Acute toxicity of 2′-acetonaphthone was bioassayed using doses that ranged from 1.25 to 20 ug/termite. At stock solution of 2′-acetonaphthone was prepared ([…]). Dilutions were made by taking aliquots from the stock solution (62.5, 125, 250, 375, 500, 750, and 1000 μl), and adjusting each volume to 2 ml with acetone. A group of 20 workers or soldiers (from colonies BS, WB, E and CR) were placed in a Petri dish (6 cm×1.5 cm) and chilled on top of an ice brick (30.32 cm×17.78 cm×3.81 cm; IceBerg, Mid-Lands Chemical Company, Inc., Miami, Fla.) to slow their movement. Each termite was treated with a topical dose in 0.2 μl acetone to the dorsum of the mesothorax using a Hamilton PB 600 Repeating Dispenser equipped with a 10 μl syringe (Hamilton, Reno, Nev.). The experimental termites were treated with doses equivalent to 1.25, 2.50, 5.0, 7.5, 10.0, 15.0, and 20.0 μg/termite. Control termites were dosedwith only 0.2 μl acetone. Five replicates, each with 20 workers or 20 soldiers, were used for each dose and control. For each replicate, termites were maintained in a plastic container (5.5 cm×3.7 cm, Pioneer Pckaging Co., North Dixon, Ky.), each provided with a filter paper (Whatman #2, 55 mm diameter) wetted with 250 μl double distilled water (DDH20). The containers were covered with lids, and kept for 2 days at room temperature (26-28° C.). Daily mortality in each dish was recorded. Termites were considered dead if unable to right themselves when prodded with a fine paint brush.

CC(=O)c1ccc2ccccc2c1 [2′-acetonaphthone]
Slope ± SE (LD-P line) (colony BS, 24 hours, Soldier): 2.06 ± 0.20
Slope ± SE (LD-P line) (colony BS, 24 hours, Worker): 2.52 ± 0.22
Slope ± SE (LD-P line) (colony BS, 48 hours, Soldier): 4.22 ± 0.40
Slope ± SE (LD-P line) (colony BS, 48 hours, Worker): 3.35 ± 0.30
Slope ± SE (LD-P line) (colony CR, 24 hours, Soldier): 3.51 ± 0.26
Slope ± SE (LD-P line) (colony CR, 24 hours, Worker): 3.27 ± 0.24
Slope ± SE (LD-P line) (colony CR, 48 hours, Soldier): 3.95 ± 0.33
Slope ± SE (LD-P line) (colony CR, 48 hours, Worker): 3.57 ± 0.33
Slope ± SE (LD-P line) (colony E, 24 hours, Soldier): 2.93 ± 0.19
Slope ± SE (LD-P line) (colony E, 24 hours, Worker): 2.99 ± 0.20
Slope ± SE (LD-P line) (colony E, 48 hours, Soldier): 2.79 ± 0.19
Slope ± SE (LD-P line) (colony E, 48 hours, Worker): 2.55 ± 0.19
Slope ± SE (LD-P line) (colony WB, 24 hours, Soldier): 3.09 ± 0.27
Slope ± SE (LD-P line) (colony WB, 24 hours, Worker): 2.29 ± 0.24
Slope ± SE (LD-P line) (colony WB, 48 hours, Soldier): 3.12 ± 0.49
Slope ± SE (LD-P line) (colony WB, 48 hours, Worker): 4.99 ± 0.74
tolerance of colony E versus colony WB (termites from colony E vs colony WB): 4 fold
